Here are results for 3 compounds from PubChem BioAssay AID256 (DTP/NCI, 2004).

The list does not hold the whole screen: it gathers some chemical classes. Other doses and runs of a compound may be missing. T/C is the treated group as % of the vehicle group. Some entries give survivors of the animals treated and no T/C: the source holds a T/C of zero for them, seemingly a mark for toxic or unscored doses. Some doses without a T/C left all or most animals alive at the check, yet need not have been tolerated: the source hardly ever lists a survival T/C far under the control, and the zero likely stands for such cases as well. Survivors were counted at the toxicity check, usually on the fifth day, unless a day is given; later deaths do not show. Schedule codes are those of the source, taken here to give the interval after Q, in days (D) or hours (H), and the number of doses after X. Where survival is the endpoint, this PubChem deposit counts one and a half times the control or more as active, and values a quarter to a half above the control carry no call in these data; other NCI protocols may use other cut-offs. Some entries hold several experiments; their values stand side by side, smallest first. Some T/C values carry the count of animals alive at the toxicity check (mostly the fifth day); where neither a count nor a note follows, no animal had died by that day.

This test has as its system CD2F1 mice, L1210 leukemia ip, survival T/C. Nature of the test: NCI In Vivo Anticancer Drug Screen. Data for tumor model L1210 Leukemia (intraperitoneal) in CD2F1 (CDF1) mice. The note with it: higher T/C = longer survival. A digest of the protocol:
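Compound-dosed mice with transplantable tumor versus matched vehicle controls; endpoint ratio T/C reported.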

`NC(=O)c1[nH]cnc1/N=N\N(CCCl)CCCl`: the T/C is, setting by setting: (T/C endpoint: mean survival time, dose: 20.0 mg/kg/injection, schedule: Q01DX009 (ip), vehicle: DMSO) 131 % of control; (T/C endpoint: mean survival time, dose: 30.0 mg/kg/injection, schedule: Q04DX003 (ip), vehicle: other) 106 % of control; (T/C endpoint: mean survival time, dose: 40.0 mg/kg/injection, schedule: Q01DX009 (ip), vehicle: DMSO) 188 % of control; (T/C endpoint: mean survival time, dose: 60.0 mg/kg/injection, schedule: Q04DX003 (ip), vehicle: other) 108 % of control; (T/C endpoint: mean survival time, dose: 60.0 mg/kg/injection, schedule: Q04DX004 (ip), vehicle: other) 245 % of control; (T/C endpoint: mean survival time, dose: 75.0 mg/kg/injection, schedule: Q04DX003 (ip), vehicle: carboxymethylcellulose (CMC)) 297 % of control. Further, the T/C was 235 % of control (T/C endpoint: mean survival time, dose: 80.0 mg/kg/injection, schedule: Q01DX009 (ip), vehicle: DMSO); 286 % of control (T/C endpoint: mean survival time, dose: 90.0 mg/kg/injection, schedule: Q04DX004 (ip), vehicle: other); 258 % of control (T/C endpoint: mean survival time, dose: 95.0 mg/kg/injection, schedule: Q04DX004 (ip), vehicle: other); 160 % of control (T/C endpoint: mean survival time, dose: 120.0 mg/kg/injection, schedule: Q04DX003 (ip), vehicle: other); 322 and 331 % of control (T/C endpoint: mean survival time, dose: 135.0 mg/kg/injection, schedule: Q04DX004 (ip), vehicle: other); 211 % of control (T/C endpoint: mean survival time, dose: 150.0 mg/kg/injection, schedule: Q01DX001 (ip), vehicle: carboxymethylcellulose (CMC)). The T/C reads like this: (T/C endpoint: mean survival time, dose: 150.0 mg/kg/injection, schedule: Q04DX003 (ip), vehicle: carboxymethylcellulose (CMC)) 335 % of control; (T/C endpoint: mean survival time, dose: 150.0 mg/kg/injection, schedule: Q08DX002 (ip), vehicle: carboxymethylcellulose (CMC)) 273 % of control; (T/C endpoint: mean survival time, dose: 160.0 mg/kg/injection, schedule: Q01DX009 (ip), vehicle: DMSO) 205 % of control; (T/C endpoint: mean survival time, dose: 240.0 mg/kg/injection, schedule: Q01DX009 (ip), vehicle: DMSO) 197 % of control [5 of 6 alive]; (T/C endpoint: mean survival time, dose: 240.0 mg/kg/injection, schedule: Q04DX003 (ip), vehicle: other) 141 % of control; (T/C endpoint: mean survival time, dose: 300.0 mg/kg/injection, schedule: Q01DX001 (ip), vehicle: carboxymethylcellulose (CMC)) 267 % of control [7 of 8 alive]. Further, the T/C runs as follows: (T/C endpoint: mean survival time, dose: 300.0 mg/kg/injection, schedule: Q04DX003 (ip), vehicle: carboxymethylcellulose (CMC)) 215 % of control; (T/C endpoint: mean survival time, dose: 300.0 mg/kg/injection, schedule: Q08DX002 (ip), vehicle: carboxymethylcellulose (CMC)) 480 % of control; (T/C endpoint: mean survival time, dose: 600.0 mg/kg/injection, schedule: Q01DX001 (ip), vehicle: carboxymethylcellulose (CMC)) 267 % of control; (T/C endpoint: mean survival time, dose: 600.0 mg/kg/injection, schedule: Q04DX003 (ip), vehicle: carboxymethylcellulose (CMC)) 159 % of control [6 of 8 alive]; (T/C endpoint: mean survival time, dose: 600.0 mg/kg/injection, schedule: Q08DX002 (ip), vehicle: carboxymethylcellulose (CMC)) 232 % of control [7 of 8 alive]; (T/C endpoint: mean survival time, dose: 1200.0 mg/kg/injection, schedule: Q01DX001 (ip), vehicle: carboxymethylcellulose (CMC)) 223 % of control [6 of 8 alive]. The T/C (T/C endpoint: mean survival time, dose: 1200.0 mg/kg/injection, schedule: Q08DX002 (ip), vehicle: carboxymethylcellulose (CMC)) is 181 % of control [7 of 8 alive]; the T/C (T/C endpoint: median survival time, dose: 25.0 mg/kg/injection, schedule: Q01DX001 (ip), vehicle: Klucel (hydroxypropylcellulose) (HPC)) was 101 % of control; the T/C (T/C endpoint: median survival time, dose: 25.0 mg/kg/injection, schedule: Q01DX009 (ip), vehicle: Klucel (hydroxypropylcellulose) (HPC), evaluated on day 30) was 158 % of control; the T/C (T/C endpoint: median survival time, dose: 25.0 mg/kg/injection, schedule: Q01DX009 (ip), vehicle: Klucel (hydroxypropylcellulose) (HPC), evaluated on day 55) is 124 % of control; the T/C (T/C endpoint: median survival time, dose: 25.0 mg/kg/injection, schedule: Q04DX003 (ip), vehicle: saline with Tween-80) is 112 % of control; the T/C (T/C endpoint: median survival time, dose: 50.0 mg/kg/injection, schedule: Q01DX001 (ip), vehicle: Klucel (hydroxypropylcellulose) (HPC)) is 107 % of control. Moreover, the T/C reads like this: (T/C endpoint: median survival time, dose: 50.0 mg/kg/injection, schedule: Q01DX009 (ip), vehicle: Klucel (hydroxypropylcellulose) (HPC), evaluated on day 30) 197 % of control; (T/C endpoint: median survival time, dose: 50.0 mg/kg/injection, schedule: Q01DX009 (ip), vehicle: Klucel (hydroxypropylcellulose) (HPC), evaluated on day 55) 184 % of control; (T/C endpoint: median survival time, dose: 50.0 mg/kg/injection, schedule: Q04DX003 (ip), vehicle: saline with Tween-80) 164 % of control; (T/C endpoint: median survival time, dose: 100.0 mg/kg/injection, schedule: Q01DX001 (ip), vehicle: Klucel (hydroxypropylcellulose) (HPC)) 137 % of control; (T/C endpoint: median survival time, dose: 100.0 mg/kg/injection, schedule: Q01DX009 (ip), vehicle: Klucel (hydroxypropylcellulose) (HPC), evaluated on day 30) 275 % of control; (T/C endpoint: median survival time, dose: 100.0 mg/kg/injection, schedule: Q01DX009 (ip), vehicle: Klucel (hydroxypropylcellulose) (HPC), evaluated on day 55) 256 % of control. The T/C is, setting by setting: (T/C endpoint: median survival time, dose: 100.0 mg/kg/injection, schedule: Q04DX003 (ip), vehicle: saline with Tween-80) 213 % of control; (T/C endpoint: median survival time, dose: 108.0 mg/kg/injection, schedule: Q01DX001 (ip), vehicle: other) 173 % of control; (T/C endpoint: median survival time, dose: 108.0 mg/kg/injection, schedule: Q01DX001 (ip), vehicle: steroid suspending solution) 166 % of control; (T/C endpoint: median survival time, dose: 180.0 mg/kg/injection, schedule: Q01DX001 (ip), vehicle: other) 181 % of control; (T/C endpoint: median survival time, dose: 180.0 mg/kg/injection, schedule: Q01DX001 (ip), vehicle: steroid suspending solution) 172 % of control; (T/C endpoint: median survival time, dose: 200.0 mg/kg/injection, schedule: Q01DX001 (ip), vehicle: Klucel (hydroxypropylcellulose) (HPC)) 213 % of control. The T/C was 155 % of control (T/C endpoint: median survival time, dose: 200.0 mg/kg/injection, schedule: Q01DX009 (ip), vehicle: Klucel (hydroxypropylcellulose) (HPC), evaluated on day 30); 662 % of control (T/C endpoint: median survival time, dose: 200.0 mg/kg/injection, schedule: Q01DX009 (ip), vehicle: Klucel (hydroxypropylcellulose) (HPC), evaluated on day 55); 370 % of control (T/C endpoint: median survival time, dose: 200.0 mg/kg/injection, schedule: Q04DX003 (ip), vehicle: saline with Tween-80); 181 % of control (T/C endpoint: median survival time, dose: 300.0 mg/kg/injection, schedule: Q01DX001 (ip), vehicle: other); 177 % of control (T/C endpoint: median survival time, dose: 300.0 mg/kg/injection, schedule: Q01DX001 (ip), vehicle: steroid suspending solution); 208 % of control (T/C endpoint: median survival time, dose: 400.0 mg/kg/injection, schedule: Q01DX001 (ip), vehicle: Klucel (hydroxypropylcellulose) (HPC)). Further, the T/C by setting is: (T/C endpoint: median survival time, dose: 400.0 mg/kg/injection, schedule: Q01DX009 (ip), vehicle: Klucel (hydroxypropylcellulose) (HPC), evaluated on day 30) 97 % of control; (T/C endpoint: median survival time, dose: 400.0 mg/kg/injection, schedule: Q01DX009 (ip), vehicle: Klucel (hydroxypropylcellulose) (HPC), evaluated on day 55) 119 % of control; (T/C endpoint: median survival time, dose: 500.0 mg/kg/injection, schedule: Q01DX001 (ip), vehicle: other) 168 % of control; (T/C endpoint: median survival time, dose: 500.0 mg/kg/injection, schedule: Q01DX001 (ip), vehicle: steroid suspending solution) 155 % of control; (T/C endpoint: median survival time, dose: 800.0 mg/kg/injection, schedule: Q01DX001 (ip), vehicle: Klucel (hydroxypropylcellulose) (HPC)) 216 % of control.

For the compound `Cc1cc([N+](=O)[O-])cc([N+](=O)[O-])c1OC(=O)CCC(=O)Oc1c(C)cc([N+](=O)[O-])cc1[N+](=O)[O-]`, the T/C is 89 % of control (T/C endpoint: mean survival time, dose: 100.0 mg/kg/injection, schedule: Q04DX003 (ip), vehicle: saline with Tween-80); 89 % of control (T/C endpoint: mean survival time, dose: 200.0 mg/kg/injection, schedule: Q04DX003 (ip), vehicle: saline with Tween-80); 93 % of control (T/C endpoint: mean survival time, dose: 400.0 mg/kg/injection, schedule: Q04DX003 (ip), vehicle: saline with Tween-80).

With `C/C(CC/C(C)=N\Nc1ccc([N+](=O)[O-])cc1[N+](=O)[O-])=N/Nc1ccc([N+](=O)[O-])cc1[N+](=O)[O-]`, the T/C (T/C endpoint: mean survival time, dose: 100.0 mg/kg/injection, schedule: Q01DX001 (ip), vehicle: saline with Tween-80) is 94 % of control and the T/C (T/C endpoint: mean survival time, dose: 200.0 mg/kg/injection, schedule: Q01DX001 (ip), vehicle: saline with Tween-80) is 86 % of control. For the same compound, the survivor count (T/C endpoint: mean survival time, dose: 400.0 mg/kg/injection, schedule: Q01DX001 (ip), vehicle: saline with Tween-80) was 6 of 6.
